In paper PMC1940015:
Where a chain is given by its changes, count along the chain named. These are yes or no findings as the source states them, for the method shown. Binding seen in cells or lysates may run through a third protein. Some binding calls cover weakened binding; strength is not graded here.

Amino acid sequences for entries named in this document (tags omitted).
UniProt Q66H76: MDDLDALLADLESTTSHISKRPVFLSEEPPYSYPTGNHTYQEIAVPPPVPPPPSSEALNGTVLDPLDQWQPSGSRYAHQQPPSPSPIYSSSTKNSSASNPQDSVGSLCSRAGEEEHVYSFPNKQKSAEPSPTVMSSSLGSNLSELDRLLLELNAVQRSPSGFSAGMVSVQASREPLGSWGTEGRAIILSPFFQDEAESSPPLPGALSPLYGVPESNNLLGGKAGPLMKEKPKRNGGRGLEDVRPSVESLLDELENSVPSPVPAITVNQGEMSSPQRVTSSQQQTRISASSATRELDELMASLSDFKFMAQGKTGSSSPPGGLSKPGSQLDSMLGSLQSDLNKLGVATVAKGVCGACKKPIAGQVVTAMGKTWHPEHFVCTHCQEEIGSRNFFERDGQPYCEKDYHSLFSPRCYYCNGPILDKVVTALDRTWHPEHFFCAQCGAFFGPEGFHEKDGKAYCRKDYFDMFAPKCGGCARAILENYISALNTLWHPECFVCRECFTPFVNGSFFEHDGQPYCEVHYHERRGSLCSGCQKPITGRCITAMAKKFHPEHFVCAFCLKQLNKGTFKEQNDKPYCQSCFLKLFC

Experiments:
α4S988D (human) = molecular target: T1, α4S988D (human) (UniProt P13612); assay: co-IP; 1% Triton X-100 lysates of biotin-labelled PC12 cells expressing the α4 constructs; immunoprecipitated overnight at 4°C with anti-human α4 extracellular domain antibody; beads washed with 0.5 M NaCl, 1% NP40 buffer; western blot with anti-paxillin antibody
T1 sequence (chain, biotin (cell surface molecules labelled with NHS-LC-Biotin)): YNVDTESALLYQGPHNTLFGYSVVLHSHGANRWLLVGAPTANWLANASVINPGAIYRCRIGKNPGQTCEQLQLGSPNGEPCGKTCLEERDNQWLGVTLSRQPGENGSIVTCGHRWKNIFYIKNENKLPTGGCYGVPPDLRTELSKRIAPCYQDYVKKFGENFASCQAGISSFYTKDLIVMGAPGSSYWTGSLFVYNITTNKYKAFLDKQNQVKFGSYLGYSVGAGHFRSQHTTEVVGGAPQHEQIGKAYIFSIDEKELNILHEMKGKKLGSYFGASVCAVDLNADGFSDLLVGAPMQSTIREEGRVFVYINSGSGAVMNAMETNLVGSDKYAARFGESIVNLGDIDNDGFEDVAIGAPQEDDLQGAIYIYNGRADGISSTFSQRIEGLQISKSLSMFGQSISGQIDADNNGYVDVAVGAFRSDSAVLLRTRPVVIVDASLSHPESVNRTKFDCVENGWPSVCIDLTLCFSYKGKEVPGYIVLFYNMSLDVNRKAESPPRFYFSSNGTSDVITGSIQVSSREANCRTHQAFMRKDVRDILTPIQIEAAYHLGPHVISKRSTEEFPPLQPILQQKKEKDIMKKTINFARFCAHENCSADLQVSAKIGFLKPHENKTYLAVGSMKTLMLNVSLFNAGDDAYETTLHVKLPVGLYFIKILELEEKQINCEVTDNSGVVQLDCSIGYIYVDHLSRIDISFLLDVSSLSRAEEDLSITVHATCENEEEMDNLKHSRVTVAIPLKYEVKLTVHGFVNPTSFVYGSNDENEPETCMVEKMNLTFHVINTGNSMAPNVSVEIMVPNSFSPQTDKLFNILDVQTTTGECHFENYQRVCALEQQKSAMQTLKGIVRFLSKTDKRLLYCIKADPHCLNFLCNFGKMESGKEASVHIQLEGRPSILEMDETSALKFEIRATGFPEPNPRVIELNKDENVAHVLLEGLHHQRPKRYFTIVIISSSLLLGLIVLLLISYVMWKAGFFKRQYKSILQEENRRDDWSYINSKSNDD

α4S990A (human) = molecular target: T2, α4S990A (human) (UniProt P13612); assay: as above
T2 sequence (chain, biotin (cell surface molecules labelled with NHS-LC-Biotin)): T1 sequence (chain, biotin (cell surface molecules labelled with NHS-LC-Biotin)) with D988S, S990A

binding (α4S988D (human)): no binding
binding (α4S990A (human)): binds
Substance: paxillin (endogenous in PC12 cells) (from UniProt Q66H76 1-586)
